This is an account of results in PubChem BioAssay AID248 (DTP/NCI, 2004).

The list is a part of this screen's results and no random one: it is rich in T/C values a quarter to a half above the control, in often repeated tests (any T/C) and in doses without a T/C. Further doses and runs are listed elsewhere. T/C: endpoint of the treated group in % of that of the vehicle group. Some entries give survivors of the animals treated and no T/C: the source files T/C as zero there, which appears to mark a toxic dose or a test without result, not a measured value. Some doses without a T/C left all or most animals alive at the check, yet need not have been tolerated: the source hardly ever lists a survival T/C far under the control, and the zero likely stands for such cases as well. Survivors were counted at the toxicity check, usually on the fifth day, unless a day is given; later deaths do not show. Schedule codes are those of the source, read here as Q, the interval in days (D) or hours (H), X, the number of doses. Some schedule codes hold Z or #, which are not explained here. Some structures stand for samples that the source files as different forms (salt, stereo form or complex); doses refer to the form tested. Some entries hold several experiments; their values stand side by side, smallest first. Where survival is the endpoint, this PubChem deposit counts one and a half times the control or more as active, and values a quarter to a half above the control carry no call in these data; other NCI protocols may use other cut-offs.

In this assay the test system is L1210 leukemia ip in BDF1 mice, survival T/C. The experiment in a line: NCI In Vivo Anticancer Drug Screen. Data for tumor model L1210 Leukemia (intraperitoneal) in B6D2F1 (BDF1) mice. As to conditions: T/C endpoint: mean survival time, higher T/C = longer survival.
The mark [1] stands for this setting: dose: 200.0 mg/kg/injection, schedule: Q01DX009 (ip), vehicle: saline with Tween-80.
The mark [2] stands for this setting: dose: 400.0 mg/kg/injection, schedule: Q01DX009 (ip), vehicle: saline with Tween-80.
[3] abbreviates: dose: 100.0 mg/kg/injection, schedule: Q01DX009 (ip), vehicle: saline.
Where [4] appears, read: dose: 200.0 mg/kg/injection, schedule: Q01DX009 (ip), vehicle: saline.
Where [5] appears, read: dose: 400.0 mg/kg/injection, schedule: Q01DX009 (ip), vehicle: saline.
Where [6] appears, read: dose: 480.0 mg/kg/injection, schedule: Q01DX Z (ip), vehicle: carboxymethylcellulose (CMC).
The mark [7] stands for this setting: dose: 100.0 mg/kg/injection, schedule: Q01DX001 (ip), vehicle: saline.

Turning to `Cc1c([N+](=O)[O-])cc(C(=O)Cl)cc1[N+](=O)[O-]`, where the note is “dose: 400.0 mg/kg/injection, schedule: Q04DX003 (ip), vehicle: other”, the survivor count is 0 of 6.
As to `O=C(O)COc1c(Cl)c(Cl)c(Cl)c(Cl)c1Cl`, the survivor count under setting [1] was 0 of 6 and the survivor count under setting [2] was 0 of 6.
Regarding `CN(N=O)P(=O)(Nc1ccccc1)Nc1ccccc1`, the T/C under setting [3] was 136 % of control. Further, the survivor count (dose: 200.0 mg/kg/injection, schedule: Q04DX003 (ip), vehicle: saline sonified) is 5 of 6 and the survivor count (dose: 400.0 mg/kg/injection, schedule: Q04DX003 (ip), vehicle: saline sonified) is 0 of 6.
Regarding `CCN(CC)CC(=O)NCC(CCCN1CCCCC1)(c1cccc2ccccc12)C(C)C` (stereo unspecified), the survivor count by setting is: under setting [3], 0 of 6; under setting [4], 0 of 6; under setting [5], 0 of 6.
With `NC(N)=N/N=C\c1ccc(/C=N/N=C(N)N)cc1`, the survivor count is 6 of 6 (dose: 240.0 mg/kg/injection, schedule: Q01DX Z (ip), vehicle: carboxymethylcellulose (CMC)) and 0 of 6 under setting [6].
For the molecule `CCc1ccc(C)[n+](C)c1`, the survivor count (dose: 300.0 mg/kg/injection, schedule: Q01DX001 (ip), vehicle: saline) is given as 3 of 6.
As to `CCC1CC2c3cc(OC)c(OC)cc3CCN2CC1(O)Cc1ccncc1` (stereo unspecified), where the note is “dose: 400.0 mg/kg/injection, schedule: Q04DX003 (ip), vehicle: carboxymethylcellulose (CMC)”, the survivor count is on record as 2 of 6.
On to `COC(=O)C1C(=O)OC(C)(C)C1c1ccccc1` (stereo unspecified), for which the T/C under setting [7] was 134 % of control.
Turning to `CC1=Nc2ccccc2NC(C)C1C` (stereo unspecified), the survivor count reads like this: under setting [4], 2 of 6; under setting [5], 0 of 6.
`COc1cc([N+](=O)[O-])ccc1NC(=O)C(Br)C(Br)C(=O)O` (stereo unspecified): the survivor count is, setting by setting: (dose: 200.0 mg/kg/injection, schedule: Q01DX009 (ip), vehicle: other) 5 of 6; (dose: 400.0 mg/kg/injection, schedule: Q01DX009 (ip), vehicle: other) 1 of 6.
Regarding `Nc1ccc(OCCCCNC(=O)c2ccc(S(=O)(=O)F)cc2)c(Cl)c1`, the survivor count under setting [2] is given as 3 of 6.
In the case of `CCCCCCN(CCCCCC)CC(=O)Nc1ccc(S(=O)(=O)c2ccc(NC(=O)CN(CCCCCC)CCCCCC)cc2)cc1`, the survivor count (dose: 100.0 mg/kg/injection, schedule: Q01DX001 (ip), vehicle: carboxymethylcellulose (CMC)) is 0 of 4 and 1 of 4; the survivor count (dose: 200.0 mg/kg/injection, schedule: Q01DX001 (ip), vehicle: carboxymethylcellulose (CMC)) is reported as 0 of 4; the survivor count (dose: 400.0 mg/kg/injection, schedule: Q01DX001 (ip), vehicle: carboxymethylcellulose (CMC)) is listed as 0 of 4.
Take `NC(N)=N/N=C/c1ccncc1`: the survivor count (dose: 225.0 mg/kg/injection, schedule: Q01DX009 (ip), vehicle: saline) was 1 of 3 and the survivor count (dose: 480.0 mg/kg/injection, schedule: Q01DX Z (oral), vehicle: saline) is on record as 1 of 6.
As to `c1ccn2nnnc2c1`, where the note is “dose: 400.0 mg/kg/injection, schedule: Q01DX001 (ip), vehicle: other”, the survivor count was 0 of 4.
Take `CC(C)=NNc1ccc([N+](=O)[O-])cc1[N+](=O)[O-]`: the survivor count (dose: 200.0 mg/kg/injection, schedule: Q04DX002 (ip), vehicle: Klucel (hydroxypropylcellulose) (HPC)) is reported as 3 of 3.
With `Cn1cnc([N+](=O)[O-])c1Cl`, the survivor count (dose: 400.0 mg/kg/injection, schedule: Q04DX003 (ip), vehicle: saline) was 1 of 6.
Regarding `CN(C)[C@@H]1C(=O)C(C(=O)NCNC2(C(=O)O)CCCC2)=C(O)[C@@]2(O)C(=O)C3=C(O)c4c(O)cccc4[C@@](C)(O)[C@H]3C[C@@H]12`, the T/C runs as follows: (dose: 500.0 mg/kg/injection, schedule: Q01DX015 (ip), vehicle: saline) 138 % of control; (dose: 500.0 mg/kg/injection, schedule: Q01DX Z (ip), vehicle: saline) 143 % of control. The survivor count (dose: 1000.0 mg/kg/injection, schedule: Q01DX015 (ip), vehicle: saline) was 2 of 6.
`CC1(C)N=C(N)N=C(N)N1c1ccc(CCC(=O)Nc2cccc(S(=O)(=O)F)c2)cc1`: the survivor count (dose: 150.0 mg/kg/injection, schedule: Q#A X018 (ip), vehicle: saline) is given as 4 of 6; the survivor count under setting [4] was 2 of 6; the survivor count (dose: 200.0 mg/kg/injection, schedule: Q#A X018 (ip), vehicle: saline) was 1 of 6; the survivor count (dose: 300.0 mg/kg/injection, schedule: Q01DX009 (ip), vehicle: saline) is on record as 0 of 6; the survivor count under setting [5] is reported as 0 of 6; the survivor count (dose: 500.0 mg/kg/injection, schedule: Q01DX009 (ip), vehicle: saline) is on record as 0 of 6.
`CC1CN=C(c2ccc(NC(=O)NCCCNC(=O)Nc3ccc(C4=NCC(C)N4)cc3)cc2)N1` (stereo unspecified): the T/C (dose: 15.0 mg/kg/injection, schedule: Q01DX015 (ip), vehicle: methylcellulose (MC)) was 125 % of control. The survivor count (dose: 60.0 mg/kg/injection, schedule: Q01DX015 (ip), vehicle: methylcellulose (MC)) was 0 of 6 and the survivor count (dose: 120.0 mg/kg/injection, schedule: Q01DX015 (ip), vehicle: methylcellulose (MC)) is listed as 0 of 6.
In the case of `COC(=O)C(C)(N)Cc1ccc(O)c(C)c1` (stereo unspecified), the survivor count (dose: 400.0 mg/kg/injection, schedule: Q01DX009 (ip), vehicle: Klucel (hydroxypropylcellulose) (HPC)) is reported as 3 of 6.
With `O=C1c2ccccc2C(=O)N1CBr`, the survivor count is, setting by setting: (dose: 100.0 mg/kg/injection, schedule: Q01DX009 (ip), vehicle: saline with Tween-80) 6 of 6; under setting [1], 6 of 6; under setting [2], 5 of 6.
For `CC(C)=NN=C(N)N`, the survivor count was 0 of 6 under setting [6]; 0 of 6 (dose: 480.0 mg/kg/injection, schedule: Q01DX Z (ip), vehicle: saline); 5 of 6 (dose: 960.0 mg/kg/injection, schedule: Q01DX Z (oral), vehicle: carboxymethylcellulose (CMC)).
For the molecule `CN1CCC2CCCCC2C1Cc1ccc(CC2C3CCCCC3CCN2C)cc1` (stereo unspecified), the survivor count by setting is: (dose: 10.0 mg/kg/injection, schedule: Q01DX001 (ip), vehicle: carboxymethylcellulose (CMC)) 0 of 6; (dose: 15.0 mg/kg/injection, schedule: Q01DX001 (ip), vehicle: carboxymethylcellulose (CMC)) 1 of 6; (dose: 30.0 mg/kg/injection, schedule: Q01DX001 (ip), vehicle: carboxymethylcellulose (CMC)) 0 of 6; (dose: 60.0 mg/kg/injection, schedule: Q01DX001 (ip), vehicle: carboxymethylcellulose (CMC)) 0 of 6; (dose: 75.0 mg/kg/injection, schedule: Q01DX001 (ip), vehicle: carboxymethylcellulose (CMC)) 0 of 6; (dose: 150.0 mg/kg/injection, schedule: Q01DX001 (ip), vehicle: carboxymethylcellulose (CMC)) 0 of 6. Besides, the survivor count (dose: 300.0 mg/kg/injection, schedule: Q01DX001 (ip), vehicle: carboxymethylcellulose (CMC)) is recorded as 0 of 6.
For `CCOC(=O)NOP(=O)(N1CC1(C)C)N1CC1(C)C` (stereo unspecified), the survivor count (dose: 400.0 mg/kg/injection, schedule: Q04DX002 (ip), vehicle: saline) was 0 of 3.
Turning to `C[N+]1(CCNC2=CC(=O)C(NCC[N+]3(C)CCOCC3)=CC2=O)CCOCC1`, the survivor count under setting [7] is given as 2 of 6; the survivor count (dose: 200.0 mg/kg/injection, schedule: Q01DX001 (ip), vehicle: saline) is reported as 0 of 6; the survivor count (dose: 400.0 mg/kg/injection, schedule: Q01DX001 (ip), vehicle: saline) was 0 of 6.
For the molecule `CCOC(=O)NCC(C)(CCN1CCCC1)c1cccc2ccccc12` (stereo unspecified), the survivor count reads like this: (dose: 50.0 mg/kg/injection, schedule: Q01DX009 (ip), vehicle: saline with Tween-80) 6 of 6; (dose: 100.0 mg/kg/injection, schedule: Q04DX003 (ip), vehicle: Klucel (hydroxypropylcellulose) (HPC)) 6 of 6; (dose: 200.0 mg/kg/injection, schedule: Q04DX003 (ip), vehicle: Klucel (hydroxypropylcellulose) (HPC)) 2 of 6; (dose: 400.0 mg/kg/injection, schedule: Q04DX003 (ip), vehicle: Klucel (hydroxypropylcellulose) (HPC)) 0 of 6.
